We go through 3 substances from publication PMC5642575.

Sequences of proteins named here, by UniProt entry; tags and fusion partners are left off.
UniProt P35222: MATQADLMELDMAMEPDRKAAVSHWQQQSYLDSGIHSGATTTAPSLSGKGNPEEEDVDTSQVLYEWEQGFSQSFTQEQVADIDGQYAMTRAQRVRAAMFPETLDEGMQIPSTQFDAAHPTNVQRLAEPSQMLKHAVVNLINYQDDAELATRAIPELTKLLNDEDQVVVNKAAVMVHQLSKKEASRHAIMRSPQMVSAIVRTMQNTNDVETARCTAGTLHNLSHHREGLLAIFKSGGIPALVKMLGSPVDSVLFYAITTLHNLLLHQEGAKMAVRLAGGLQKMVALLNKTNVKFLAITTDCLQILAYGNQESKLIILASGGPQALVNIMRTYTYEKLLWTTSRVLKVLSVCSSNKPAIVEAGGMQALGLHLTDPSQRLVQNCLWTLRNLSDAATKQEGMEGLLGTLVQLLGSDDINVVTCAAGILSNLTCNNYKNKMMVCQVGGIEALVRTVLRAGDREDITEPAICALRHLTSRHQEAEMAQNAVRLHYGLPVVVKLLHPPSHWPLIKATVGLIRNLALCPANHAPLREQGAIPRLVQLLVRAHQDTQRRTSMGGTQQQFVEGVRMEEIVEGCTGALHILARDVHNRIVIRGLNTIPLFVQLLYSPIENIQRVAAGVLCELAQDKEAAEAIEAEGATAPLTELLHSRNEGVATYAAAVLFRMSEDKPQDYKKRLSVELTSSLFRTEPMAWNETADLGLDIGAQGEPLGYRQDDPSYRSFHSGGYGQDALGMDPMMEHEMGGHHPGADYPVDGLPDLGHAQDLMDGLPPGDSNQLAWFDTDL

One experiment has as its target T1, myc-TFCP2 (UniProt Q12800).
T1 sequence: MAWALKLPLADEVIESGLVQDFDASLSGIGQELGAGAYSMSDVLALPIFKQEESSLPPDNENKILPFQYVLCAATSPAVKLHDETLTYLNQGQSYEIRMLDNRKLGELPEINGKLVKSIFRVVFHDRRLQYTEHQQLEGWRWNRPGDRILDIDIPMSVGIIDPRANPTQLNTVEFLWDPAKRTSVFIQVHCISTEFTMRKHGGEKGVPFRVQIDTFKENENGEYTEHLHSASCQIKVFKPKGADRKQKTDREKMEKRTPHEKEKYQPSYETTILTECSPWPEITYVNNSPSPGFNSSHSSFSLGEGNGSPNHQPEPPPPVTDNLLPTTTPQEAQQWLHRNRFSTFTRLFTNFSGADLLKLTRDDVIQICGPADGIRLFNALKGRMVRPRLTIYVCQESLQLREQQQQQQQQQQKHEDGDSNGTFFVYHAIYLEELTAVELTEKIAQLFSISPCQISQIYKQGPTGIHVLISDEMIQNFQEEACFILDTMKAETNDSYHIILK
Nature of the experiment: co-IP; ectopically expressed myc-TFCP2 and Flag-beta-catenin in HPAC cells; immunoprecipitation.

The target in experiment [1] is T2, TFCP2 (endogenous) (human (endogenous in HPAC and CFPAC)) (UniProt Q12800).
T2 sequence: T1 sequence
The experiment in a line: co-IP; endogenous proteins in HPAC and CFPAC cells; immunoprecipitation.

The target in a further experiment is T3, GST-TFCP2 fusion protein (UniProt Q12800).
T3 sequence: T1 sequence
The experiment in a line: pull-down; 5 ug GST-TFCP2 fusion protein with 500 ug HPAC whole cell lysate (50 mM Tris-Cl pH 7.5, 150 mM NaCl, 0.1% NP40), 4 C over night; captured on glutathione-Sepharose-4B beads; washed three times with lysis buffer; only the target purified.

Experiment [2] deals with T4, c-terminus of TFCP2 (254-503aa), myc-tagged (UniProt Q12800).
T4 sequence: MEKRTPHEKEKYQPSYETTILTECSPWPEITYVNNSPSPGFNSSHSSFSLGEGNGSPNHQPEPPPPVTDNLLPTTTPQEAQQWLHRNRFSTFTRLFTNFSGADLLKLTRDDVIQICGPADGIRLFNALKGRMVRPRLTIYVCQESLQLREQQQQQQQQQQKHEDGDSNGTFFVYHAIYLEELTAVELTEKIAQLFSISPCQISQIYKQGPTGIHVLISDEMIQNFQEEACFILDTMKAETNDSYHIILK
Nature of the experiment: co-IP; different TFCP2 plasmids transfected into 293T cells; 48 hours later immunoprecipitation with anti-myc antibody.

No constants are given. Whether binding was seen depends on the method and setting. Binding seen in cells or lysates may run through a third protein. Some binding calls cover weakened binding; strength is not graded here. For some of these results: Sequences can lack the tags named with a protein.

On to “Flag-beta-catenin (from UniProt P35222 1-781)”, for which the binding entry with myc-TFCP2 is “binds”.

In the case of “beta-catenin (endogenous) (from UniProt P35222 1-781)”, the binding entry (in experiment [1]; with GST-TFCP2 fusion protein) was “binds” in each case.

Regarding “beta-catenin (in 293T cells, Figure 5E) (from UniProt P35222 1-781)”, in experiment [2], the binding entry is “binds”.
